Reference: the supplement of paper PMC6411743
± gives the standard deviation of the averaged measurements. This is a selection; strong and weak results do not stand in their true shares.

The chains behind the UniProt entries cited, without tags or fusion partners. Where a name states a change or a piece, a line headed by the entry shows the natural chain unless it says otherwise.
UniProt Q9NX46: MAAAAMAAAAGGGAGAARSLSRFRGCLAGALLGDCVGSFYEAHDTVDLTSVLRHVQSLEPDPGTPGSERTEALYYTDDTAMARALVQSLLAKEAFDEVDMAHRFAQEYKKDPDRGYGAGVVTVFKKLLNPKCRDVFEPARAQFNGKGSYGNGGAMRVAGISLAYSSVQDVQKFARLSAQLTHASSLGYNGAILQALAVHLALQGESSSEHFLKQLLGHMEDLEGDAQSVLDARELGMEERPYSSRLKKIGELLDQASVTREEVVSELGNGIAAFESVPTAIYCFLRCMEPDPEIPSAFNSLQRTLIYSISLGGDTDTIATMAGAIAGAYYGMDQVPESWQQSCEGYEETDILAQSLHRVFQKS
UniProt Q9P0U4, whole entry: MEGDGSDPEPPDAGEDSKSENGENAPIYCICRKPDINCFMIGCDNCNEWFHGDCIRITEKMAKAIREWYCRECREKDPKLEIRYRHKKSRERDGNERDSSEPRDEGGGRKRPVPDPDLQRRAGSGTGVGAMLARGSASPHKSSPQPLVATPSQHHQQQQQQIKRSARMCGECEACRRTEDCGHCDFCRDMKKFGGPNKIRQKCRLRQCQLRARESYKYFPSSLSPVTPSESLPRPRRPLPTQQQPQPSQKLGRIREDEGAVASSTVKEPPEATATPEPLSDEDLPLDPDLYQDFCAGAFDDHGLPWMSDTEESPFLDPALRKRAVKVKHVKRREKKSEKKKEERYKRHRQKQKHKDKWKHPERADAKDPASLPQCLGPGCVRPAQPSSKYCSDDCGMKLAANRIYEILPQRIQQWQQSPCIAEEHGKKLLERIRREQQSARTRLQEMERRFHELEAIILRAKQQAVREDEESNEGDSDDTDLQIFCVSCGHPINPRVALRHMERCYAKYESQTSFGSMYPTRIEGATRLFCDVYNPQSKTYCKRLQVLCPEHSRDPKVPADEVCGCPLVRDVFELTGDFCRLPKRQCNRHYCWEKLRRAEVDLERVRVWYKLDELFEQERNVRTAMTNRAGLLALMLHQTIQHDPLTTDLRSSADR
UniProt Q9NX62: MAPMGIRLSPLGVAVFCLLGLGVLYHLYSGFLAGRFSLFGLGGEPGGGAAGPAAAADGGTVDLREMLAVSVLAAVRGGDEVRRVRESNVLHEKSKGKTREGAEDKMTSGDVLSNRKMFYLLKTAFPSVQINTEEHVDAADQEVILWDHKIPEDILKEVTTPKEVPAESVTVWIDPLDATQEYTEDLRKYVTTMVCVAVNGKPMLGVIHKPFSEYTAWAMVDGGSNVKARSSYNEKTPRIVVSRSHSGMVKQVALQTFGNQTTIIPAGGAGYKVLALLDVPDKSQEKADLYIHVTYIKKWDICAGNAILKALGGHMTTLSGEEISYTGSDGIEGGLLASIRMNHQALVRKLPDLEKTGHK
UniProt Q9NQG7: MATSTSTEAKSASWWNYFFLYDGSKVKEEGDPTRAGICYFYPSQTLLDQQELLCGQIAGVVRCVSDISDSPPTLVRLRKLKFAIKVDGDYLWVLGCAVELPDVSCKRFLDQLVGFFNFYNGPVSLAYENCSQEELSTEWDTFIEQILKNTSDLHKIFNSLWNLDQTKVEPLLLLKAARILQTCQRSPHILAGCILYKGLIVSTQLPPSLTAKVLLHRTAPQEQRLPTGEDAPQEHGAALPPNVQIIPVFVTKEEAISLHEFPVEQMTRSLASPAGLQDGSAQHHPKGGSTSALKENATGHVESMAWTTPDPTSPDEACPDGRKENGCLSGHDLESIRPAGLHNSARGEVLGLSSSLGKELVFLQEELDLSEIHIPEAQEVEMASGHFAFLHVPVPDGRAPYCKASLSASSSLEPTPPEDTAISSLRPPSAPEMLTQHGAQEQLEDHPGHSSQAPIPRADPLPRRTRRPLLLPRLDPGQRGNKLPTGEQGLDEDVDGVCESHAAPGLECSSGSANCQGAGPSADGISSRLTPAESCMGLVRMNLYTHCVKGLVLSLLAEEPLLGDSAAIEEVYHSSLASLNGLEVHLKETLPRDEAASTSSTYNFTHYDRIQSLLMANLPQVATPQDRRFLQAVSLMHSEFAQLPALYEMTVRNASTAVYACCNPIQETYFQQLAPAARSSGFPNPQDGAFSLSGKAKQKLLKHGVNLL
UniProt Q9NZ52: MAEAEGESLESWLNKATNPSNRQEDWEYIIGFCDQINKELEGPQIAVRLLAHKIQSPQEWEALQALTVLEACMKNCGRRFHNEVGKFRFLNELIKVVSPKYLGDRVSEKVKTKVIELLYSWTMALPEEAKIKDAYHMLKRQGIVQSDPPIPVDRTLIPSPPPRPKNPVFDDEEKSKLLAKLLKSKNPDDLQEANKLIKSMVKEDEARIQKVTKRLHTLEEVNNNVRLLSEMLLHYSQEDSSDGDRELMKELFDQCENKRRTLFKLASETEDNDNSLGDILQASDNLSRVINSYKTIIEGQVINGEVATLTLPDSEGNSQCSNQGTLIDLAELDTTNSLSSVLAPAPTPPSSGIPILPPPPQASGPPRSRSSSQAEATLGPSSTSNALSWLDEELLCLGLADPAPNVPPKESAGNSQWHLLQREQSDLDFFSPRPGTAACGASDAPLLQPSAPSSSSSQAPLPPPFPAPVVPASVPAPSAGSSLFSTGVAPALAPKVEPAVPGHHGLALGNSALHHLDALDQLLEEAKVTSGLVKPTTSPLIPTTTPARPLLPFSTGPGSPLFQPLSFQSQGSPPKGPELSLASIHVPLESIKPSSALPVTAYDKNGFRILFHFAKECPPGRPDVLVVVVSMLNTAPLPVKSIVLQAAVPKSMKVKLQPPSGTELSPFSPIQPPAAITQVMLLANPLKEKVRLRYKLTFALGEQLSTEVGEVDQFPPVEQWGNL
UniProt Q9NQC3: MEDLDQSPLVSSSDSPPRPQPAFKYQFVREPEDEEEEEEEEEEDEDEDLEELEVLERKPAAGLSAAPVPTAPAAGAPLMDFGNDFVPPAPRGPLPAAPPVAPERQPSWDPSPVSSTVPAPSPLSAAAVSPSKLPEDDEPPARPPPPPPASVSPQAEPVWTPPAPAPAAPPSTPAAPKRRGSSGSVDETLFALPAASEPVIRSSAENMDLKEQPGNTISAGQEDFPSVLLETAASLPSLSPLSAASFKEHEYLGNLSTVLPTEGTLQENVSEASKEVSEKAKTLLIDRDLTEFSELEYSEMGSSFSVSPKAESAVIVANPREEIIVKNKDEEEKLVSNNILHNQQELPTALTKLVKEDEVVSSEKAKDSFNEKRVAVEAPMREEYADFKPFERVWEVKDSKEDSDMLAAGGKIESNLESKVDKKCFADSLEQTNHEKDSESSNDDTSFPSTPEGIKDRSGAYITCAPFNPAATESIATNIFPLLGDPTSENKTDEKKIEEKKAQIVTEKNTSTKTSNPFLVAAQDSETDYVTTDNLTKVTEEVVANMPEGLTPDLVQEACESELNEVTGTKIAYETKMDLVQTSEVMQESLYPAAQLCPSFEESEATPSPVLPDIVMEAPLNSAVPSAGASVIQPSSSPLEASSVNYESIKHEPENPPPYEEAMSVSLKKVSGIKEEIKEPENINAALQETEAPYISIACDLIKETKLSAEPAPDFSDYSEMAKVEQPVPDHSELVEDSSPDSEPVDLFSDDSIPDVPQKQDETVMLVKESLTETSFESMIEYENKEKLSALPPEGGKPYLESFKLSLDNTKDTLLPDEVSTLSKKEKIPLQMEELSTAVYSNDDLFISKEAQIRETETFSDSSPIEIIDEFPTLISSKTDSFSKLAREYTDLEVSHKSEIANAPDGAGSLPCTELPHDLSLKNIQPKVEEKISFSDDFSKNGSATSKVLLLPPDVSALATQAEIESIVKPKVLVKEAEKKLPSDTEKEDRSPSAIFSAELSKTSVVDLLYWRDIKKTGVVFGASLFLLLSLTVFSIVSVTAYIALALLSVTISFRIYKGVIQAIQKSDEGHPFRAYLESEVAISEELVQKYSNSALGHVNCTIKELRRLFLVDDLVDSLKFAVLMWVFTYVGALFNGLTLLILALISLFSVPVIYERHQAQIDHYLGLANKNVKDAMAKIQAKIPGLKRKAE
UniProt Q9NR50: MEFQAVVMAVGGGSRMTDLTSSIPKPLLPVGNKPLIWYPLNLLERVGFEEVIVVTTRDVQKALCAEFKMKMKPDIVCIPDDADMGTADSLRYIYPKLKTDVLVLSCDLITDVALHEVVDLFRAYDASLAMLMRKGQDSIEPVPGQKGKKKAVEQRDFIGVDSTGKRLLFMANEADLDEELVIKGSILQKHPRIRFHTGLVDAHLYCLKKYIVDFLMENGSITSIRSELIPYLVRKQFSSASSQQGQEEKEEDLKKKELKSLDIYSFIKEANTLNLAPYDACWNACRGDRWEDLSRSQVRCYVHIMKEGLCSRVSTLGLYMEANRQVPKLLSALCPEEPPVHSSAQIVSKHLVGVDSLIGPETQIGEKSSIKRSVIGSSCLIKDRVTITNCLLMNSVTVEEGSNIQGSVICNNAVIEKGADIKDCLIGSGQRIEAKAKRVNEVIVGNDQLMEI
UniProt Q9NXK8: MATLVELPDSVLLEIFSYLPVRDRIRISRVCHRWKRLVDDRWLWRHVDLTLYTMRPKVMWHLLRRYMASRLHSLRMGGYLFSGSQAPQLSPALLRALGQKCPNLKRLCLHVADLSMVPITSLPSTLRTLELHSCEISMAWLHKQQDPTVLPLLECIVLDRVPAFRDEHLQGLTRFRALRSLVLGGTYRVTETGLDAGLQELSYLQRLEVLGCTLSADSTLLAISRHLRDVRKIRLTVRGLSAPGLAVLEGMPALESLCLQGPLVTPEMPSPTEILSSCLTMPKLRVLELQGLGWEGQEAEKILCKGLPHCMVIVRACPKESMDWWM
UniProt Q9NXC5: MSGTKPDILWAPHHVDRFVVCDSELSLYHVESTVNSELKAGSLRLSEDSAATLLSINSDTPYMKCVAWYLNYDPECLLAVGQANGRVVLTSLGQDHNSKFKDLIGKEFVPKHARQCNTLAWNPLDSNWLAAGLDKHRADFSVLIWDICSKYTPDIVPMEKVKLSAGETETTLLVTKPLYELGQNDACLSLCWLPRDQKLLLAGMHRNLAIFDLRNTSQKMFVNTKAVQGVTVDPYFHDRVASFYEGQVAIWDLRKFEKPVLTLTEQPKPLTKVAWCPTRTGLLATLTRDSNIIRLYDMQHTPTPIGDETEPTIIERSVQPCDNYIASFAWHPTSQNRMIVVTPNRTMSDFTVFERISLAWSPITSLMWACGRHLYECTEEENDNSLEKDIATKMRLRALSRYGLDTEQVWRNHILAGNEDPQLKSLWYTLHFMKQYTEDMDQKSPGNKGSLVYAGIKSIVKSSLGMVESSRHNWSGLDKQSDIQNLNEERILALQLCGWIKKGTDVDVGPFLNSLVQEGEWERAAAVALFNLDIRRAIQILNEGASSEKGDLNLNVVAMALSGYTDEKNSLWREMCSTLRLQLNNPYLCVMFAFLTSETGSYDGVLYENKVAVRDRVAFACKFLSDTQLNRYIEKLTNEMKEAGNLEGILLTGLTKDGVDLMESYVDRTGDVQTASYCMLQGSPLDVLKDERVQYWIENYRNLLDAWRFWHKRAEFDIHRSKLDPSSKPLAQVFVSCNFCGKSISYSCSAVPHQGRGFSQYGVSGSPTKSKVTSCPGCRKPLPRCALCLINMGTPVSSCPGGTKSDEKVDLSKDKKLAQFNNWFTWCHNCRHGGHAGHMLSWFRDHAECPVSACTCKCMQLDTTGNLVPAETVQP
UniProt Q9NQZ5: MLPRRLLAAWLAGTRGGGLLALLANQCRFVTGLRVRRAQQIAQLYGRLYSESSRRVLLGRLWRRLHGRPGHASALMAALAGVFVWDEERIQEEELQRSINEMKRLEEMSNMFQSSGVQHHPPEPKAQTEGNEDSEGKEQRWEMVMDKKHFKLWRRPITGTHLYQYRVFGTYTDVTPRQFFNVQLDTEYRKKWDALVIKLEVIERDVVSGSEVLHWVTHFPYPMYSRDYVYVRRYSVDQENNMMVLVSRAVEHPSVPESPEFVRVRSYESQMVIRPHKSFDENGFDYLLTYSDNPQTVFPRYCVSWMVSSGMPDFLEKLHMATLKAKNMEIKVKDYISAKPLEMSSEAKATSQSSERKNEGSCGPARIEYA
UniProt Q9NUG6, whole entry: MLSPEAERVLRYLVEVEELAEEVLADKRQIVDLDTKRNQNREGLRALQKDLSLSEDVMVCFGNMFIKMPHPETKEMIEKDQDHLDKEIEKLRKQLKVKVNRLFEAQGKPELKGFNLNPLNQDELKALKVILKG
UniProt Q9NPH0: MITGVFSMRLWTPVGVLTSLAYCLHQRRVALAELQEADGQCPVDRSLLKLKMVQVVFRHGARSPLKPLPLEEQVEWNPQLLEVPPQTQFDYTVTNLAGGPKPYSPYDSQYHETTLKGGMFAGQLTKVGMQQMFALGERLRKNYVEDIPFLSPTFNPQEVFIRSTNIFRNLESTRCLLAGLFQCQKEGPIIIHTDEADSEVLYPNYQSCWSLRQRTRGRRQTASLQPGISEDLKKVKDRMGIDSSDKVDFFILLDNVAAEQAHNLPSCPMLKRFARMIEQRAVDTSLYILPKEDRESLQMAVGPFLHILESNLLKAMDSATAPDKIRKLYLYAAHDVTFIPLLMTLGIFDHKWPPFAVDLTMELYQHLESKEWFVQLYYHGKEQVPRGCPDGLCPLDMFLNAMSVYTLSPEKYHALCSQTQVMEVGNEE

Compound: Nc1ncnc2c1ncn2[C@@H]1O[C@H](COP(=O)(O)OP(=O)(O)OP(=O)(O)O)[C@@H](O)[C@H]1O [adenosine triphosphate]
Test: NP40-soluble protein abundance relative to vehicle (solubility fold change) (ratio); higher = more soluble protein in presence of ATP
Outline: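 Each value is a fold change relative to the detergent-processed vehicle, calculated per replicate from vsn-normalised intensities. Jurkat crude lysate received eight concentrations (0.1 to 10 mM) for 10 min at room temperature and 3 min at 37 °C, then was solubilised in 0.8% NP40 with benzonase (60 min, 4 °C). The ultracentrifuged supernatant was TMT-labelled and run by LC-MS/MS in three independent experiments.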

Target	NP40-soluble protein abundance (concentration: 1mM)	NP40-soluble protein abundance (concentration: 2mM)	NP40-soluble protein abundance (concentration: 4mM)	NP40-soluble protein abundance (concentration: 6mM)	NP40-soluble protein abundance (concentration: 8mM)	NP40-soluble protein abundance (concentration: 10mM)
SERINC1 (UniProt Q9NRX5)	1.02 ± 0.077	1.07 ± 0.1	1.03 ± 0.05	1.04 ± 0.1	1.09 ± 0.18	1.06 ± 0.17
ACTR10 (UniProt Q9NZ32)	0.952 ± 0.019	0.934 ± 0.019	0.934 ± 0.015	0.9048 ± 0.0077	0.932 ± 0.05	0.914 ± 0.051
KCTD5 (UniProt Q9NXV2)	0.9774 ± 0.0046	0.994 ± 0.081	0.98 ± 0.023	0.938 ± 0.11	0.933 ± 0.099	0.96 ± 0.07
UniProt Q9NZL9 and related entries	0.984 ± 0.054	0.99 ± 0.041	0.965 ± 0.048	0.978 ± 0.03	0.979 ± 0.052	0.958 ± 0.051
UniProt Q9NUT2 and related entries	1.03 ± 0.06	0.985 ± 0.053	1.03 ± 0.061	0.996 ± 0.1	1.02 ± 0.054	1 ± 0.074
UniProt Q9NUI1 and related entries	0.987 ± 0.029	0.991 ± 0.036	1.029 ± 0.0083	0.988 ± 0.018	1.02 ± 0.019	1.05 ± 0.04
ADPRHL2 (UniProt Q9NX46)	0.951 ± 0.037	0.977 ± 0.04	0.971 ± 0.06	0.926 ± 0.069	0.939 ± 0.016	0.95 ± 0.048
CRIPT (UniProt Q9P021)	1.12 ± 0.12	1.08 ± 0.092	1.09 ± 0.093	1.09 ± 0.052	1.11 ± 0.075	1.01 ± 0.15
UniProt Q9P0U4 and related entries	1.02 ± 0.025	1.01 ± 0.045	1.04 ± 0.059	1.03 ± 0.061	1.04 ± 0.086	1.06 ± 0.063
UniProt Q9NPA0	0.937 ± 0.033	0.959 ± 0.024	0.914 ± 0.022	0.927 ± 0.026	0.931 ± 0.018	0.948 ± 0.021
CCDC59 (UniProt Q9P031)	0.975 ± 0.12	0.978 ± 0.095	0.969 ± 0.082	1.02 ± 0.089	0.965 ± 0.045	0.933 ± 0.12
UniProt Q9NRG9 and related entries	1.06 ± 0.083	1.03 ± 0.1	1.02 ± 0.061	1.04 ± 0.097	1.05 ± 0.1	1.01 ± 0.12
NUDT15 (UniProt Q9NV35)	0.994 ± 0.043	1.01 ± 0.035	0.978 ± 0.051	0.989 ± 0.013	0.979 ± 0.026	0.947 ± 0.063
UniProt Q9NQ88	0.978 ± 0.02	0.992 ± 0.032	0.96 ± 0.018	0.952 ± 0.03	0.949 ± 0.013	0.953 ± 0.013
UniProt Q9NW08 and related entries	1.05 ± 0.059	1.03 ± 0.051	1.04 ± 0.037	0.975 ± 0.03	1.1 ± 0.042	1.06 ± 0.043
UniProt Q9NXH9 and related entries	1.01 ± 0.021	0.9884 ± 0.0048	0.973 ± 0.04	0.981 ± 0.015	0.978 ± 0.042	0.99 ± 0.011
IMPAD1 (UniProt Q9NX62)	0.968 ± 0.024	0.949 ± 0.018	0.927 ± 0.01	0.992 ± 0.011	0.919 ± 0.029	0.925 ± 0.011
UniProt Q9NUP9	0.975 ± 0.032	0.991 ± 0.033	0.965 ± 0.04	0.962 ± 0.02	0.955 ± 0.0061	0.885 ± 0.046
HPS4 (UniProt Q9NQG7)	0.951 ± 0.065	0.917 ± 0.06	1.04 ± 0.048	1.03 ± 0.093	1.03 ± 0.093	0.979 ± 0.094
GGA3 (UniProt Q9NZ52)	0.96 ± 0.051	0.987 ± 0.044	0.934 ± 0.018	0.981 ± 0.041	0.943 ± 0.013	0.917 ± 0.037

Target	NP40-soluble protein abundance (concentration: 1mM)	NP40-soluble protein abundance (concentration: 2mM)	NP40-soluble protein abundance (concentration: 4mM)	NP40-soluble protein abundance (concentration: 6mM)	NP40-soluble protein abundance (concentration: 8mM)	NP40-soluble protein abundance (concentration: 10mM)
UniProt Q9NQZ6 and related entries	0.9474 ± 0.0076	0.923 ± 0.034	1.03 ± 0.025	1.02 ± 0.065	0.957 ± 0.019	0.918 ± 0.086
AGPAT5 (UniProt Q9NUQ2)	1.08 ± 0.083	1.03 ± 0.051	1.06 ± 0.029	1.056 ± 0.008	1.11 ± 0.05	1.06 ± 0.066
UBE2T (UniProt Q9NPD8)	0.979 ± 0.076	0.98 ± 0.04	0.963 ± 0.032	1 ± 0.016	0.926 ± 0.036	0.893 ± 0.032
RTN4 (UniProt Q9NQC3)	0.963 ± 0.031	0.962 ± 0.0098	0.985 ± 0.027	0.977 ± 0.012	0.971 ± 0.027	0.944 ± 0.042
UniProt Q9NPL8	0.988 ± 0.027	0.962 ± 0.02	0.948 ± 0.047	0.953 ± 0.015	0.968 ± 0.049	0.991 ± 0.035
KLHL11 (UniProt Q9NVR0)	1.09 ± 0.11	1.07 ± 0.14	1.02 ± 0.12	0.977 ± 0.13	1.1 ± 0.15	0.982 ± 0.085
PANK4 (UniProt Q9NVE7)	1.02 ± 0.12	0.991 ± 0.064	1.02 ± 0.1	0.928 ± 0.12	1.03 ± 0.1	0.995 ± 0.034
EIF2B3 (UniProt Q9NR50)	0.996 ± 0.08	0.97 ± 0.051	0.977 ± 0.046	0.958 ± 0.031	1.02 ± 0.022	0.991 ± 0.018
UniProt Q9NXF7	1 ± 0.032	0.995 ± 0.034	0.965 ± 0.031	0.972 ± 0.041	0.954 ± 0.035	0.923 ± 0.074
UniProt Q9NZ09 and related entries	0.955 ± 0.12	0.938 ± 0.035	0.976 ± 0.1	0.978 ± 0.064	0.942 ± 0.071	0.964 ± 0.11
MYO5C (UniProt Q9NQX4)	0.997 ± 0.13	1.01 ± 0.17	1.09 ± 0.14	1.05 ± 0.085	1.13 ± 0.27	1.1 ± 0.31
TERF2IP (UniProt Q9NYB0)	1.01 ± 0.061	1.03 ± 0.021	1.01 ± 0.015	1.07 ± 0.029	0.9913 ± 0.0076	0.979 ± 0.029
NANS (UniProt Q9NR45)	1.02 ± 0.02	0.988 ± 0.05	0.958 ± 0.027	0.974 ± 0.064	0.982 ± 0.04	0.947 ± 0.054
UniProt Q9P0J0 and related entries	1.04 ± 0.012	0.986 ± 0.027	0.938 ± 0.023	0.915 ± 0.045	1.008 ± 0.0088	0.901 ± 0.046
UniProt Q9NQS7 and related entries	1.155 ± 0.0074	1.16 ± 0.026	1.28 ± 0.051	1.35 ± 0.069	1.36 ± 0.066	1.4 ± 0.06
UniProt Q9NRG7-2|Q9NRG7	1.09 ± 0.043	1.081 ± 0.0052	1.04 ± 0.022	1.07 ± 0.064	1.04 ± 0.054	1.1 ± 0.049
UniProt Q9NXK8 and related entries	1.02 ± 0.1	1.03 ± 0.087	1.02 ± 0.11	0.979 ± 0.11	1.04 ± 0.058	1.06 ± 0.054
MIOS (UniProt Q9NXC5)	1.18 ± 0.065	1.2 ± 0.057	1.27 ± 0.028	1.21 ± 0.055	1.33 ± 0.051	1.36 ± 0.071
UBQLN4 (UniProt Q9NRR5)	1 ± 0.013	1.02 ± 0.051	0.973 ± 0.032	1.01 ± 0.11	0.957 ± 0.035	0.91 ± 0.044
TMOD2 (UniProt Q9NZR1)	1.02 ± 0.082	1.01 ± 0.042	1.04 ± 0.065	1.06 ± 0.072	1.05 ± 0.071	1 ± 0.1

Full records, quoted from the list:
UniProt Q9NXK8 and related entries is listed with NP40-soluble protein abundance (concentration: 1mM): 1.02 ± 0.1; NP40-soluble protein abundance (concentration: 2mM): 1.03 ± 0.087; NP40-soluble protein abundance (concentration: 4mM): 1.02 ± 0.11; NP40-soluble protein abundance (concentration: 6mM): 0.979 ± 0.11; NP40-soluble protein abundance (concentration: 8mM): 1.04 ± 0.058; NP40-soluble protein abundance (concentration: 10mM): 1.06 ± 0.054
TERF2IP (UniProt Q9NYB0) is listed with NP40-soluble protein abundance (concentration: 1mM): 1.01 ± 0.061; NP40-soluble protein abundance (concentration: 2mM): 1.03 ± 0.021; NP40-soluble protein abundance (concentration: 4mM): 1.01 ± 0.015; NP40-soluble protein abundance (concentration: 6mM): 1.07 ± 0.029; NP40-soluble protein abundance (concentration: 8mM): 0.9913 ± 0.0076; NP40-soluble protein abundance (concentration: 10mM): 0.979 ± 0.029
UniProt Q9NQZ6 and related entries is listed with NP40-soluble protein abundance (concentration: 1mM): 0.9474 ± 0.0076; NP40-soluble protein abundance (concentration: 2mM): 0.923 ± 0.034; NP40-soluble protein abundance (concentration: 4mM): 1.03 ± 0.025; NP40-soluble protein abundance (concentration: 6mM): 1.02 ± 0.065; NP40-soluble protein abundance (concentration: 8mM): 0.957 ± 0.019; NP40-soluble protein abundance (concentration: 10mM): 0.918 ± 0.086
UniProt Q9NXF7 is listed with NP40-soluble protein abundance (concentration: 1mM): 1 ± 0.032; NP40-soluble protein abundance (concentration: 2mM): 0.995 ± 0.034; NP40-soluble protein abundance (concentration: 4mM): 0.965 ± 0.031; NP40-soluble protein abundance (concentration: 6mM): 0.972 ± 0.041; NP40-soluble protein abundance (concentration: 8mM): 0.954 ± 0.035; NP40-soluble protein abundance (concentration: 10mM): 0.923 ± 0.074

The list goes on.

Target	NP40-soluble protein abundance (concentration: 1mM)	NP40-soluble protein abundance (concentration: 2mM)	NP40-soluble protein abundance (concentration: 4mM)	NP40-soluble protein abundance (concentration: 6mM)	NP40-soluble protein abundance (concentration: 8mM)	NP40-soluble protein abundance (concentration: 10mM)
STARD7 (UniProt Q9NQZ5)	0.952 ± 0.02	1.01 ± 0.073	0.913 ± 0.023	0.945 ± 0.086	0.92 ± 0.033	0.949 ± 0.035
PDRG1 (UniProt Q9NUG6)	0.997 ± 0.066	0.947 ± 0.035	0.942 ± 0.049	0.965 ± 0.091	1.01 ± 0.034	0.892 ± 0.081
NSMCE4A (UniProt Q9NXX6)	1.03 ± 0.054	1.04 ± 0.054	1.02 ± 0.015	0.973 ± 0.04	1.03 ± 0.031	1.03 ± 0.06
GTSE1 (UniProt Q9NYZ3)	1.01 ± 0.12	1.03 ± 0.11	1.1 ± 0.14	1.06 ± 0.23	1.01 ± 0.091	1.06 ± 0.15
UniProt Q9NS23-4	1.11 ± 0.084	1.17 ± 0.12	1.14 ± 0.045	1.12 ± 0.16	1.15 ± 0.08	1.11 ± 0.015
UniProt Q9P0L0 and related entries	0.965 ± 0.057	0.949 ± 0.014	0.921 ± 0.022	0.999 ± 0.026	0.9425 ± 0.0056	0.916 ± 0.032
PLSCR3 (UniProt Q9NRY6)	1.05 ± 0.011	1.02 ± 0.056	1.02 ± 0.032	1.04 ± 0.061	1.01 ± 0.066	0.988 ± 0.032
UniProt Q9NYP9	0.958 ± 0.022	0.94 ± 0.022	0.927 ± 0.037	0.984 ± 0.029	0.945 ± 0.029	0.931 ± 0.059
DYNLRB1 (UniProt Q9NP97)	0.99 ± 0.01	0.981 ± 0.041	0.971 ± 0.022	0.97 ± 0.035	0.975 ± 0.061	0.928 ± 0.052
UniProt Q9NRV9 and related entries	0.984 ± 0.14	0.956 ± 0.12	0.971 ± 0.11	0.969 ± 0.12	0.97 ± 0.13	0.948 ± 0.14
UniProt Q9NRR4 and related entries	1.29 ± 0.19	1.41 ± 0.1	1.39 ± 0.28	1.39 ± 0.24	1.37 ± 0.26	1.42 ± 0.26
ABCF3 (UniProt Q9NUQ8)	1.08 ± 0.029	1.08 ± 0.026	1.06 ± 0.035	1.01 ± 0.075	1.06 ± 0.018	1.06 ± 0.059
AVEN (UniProt Q9NQS1)	0.797 ± 0.062	0.827 ± 0.025	0.845 ± 0.048	0.903 ± 0.092	0.884 ± 0.042	0.895 ± 0.032
UniProt Q9NPH0 and related entries	0.953 ± 0.15	1.09 ± 0.018	1.11 ± 0.085	1.05 ± 0.021	1.08 ± 0.071	1.02 ± 0.15
UniProt Q9NUP1	0.933 ± 0.12	0.89 ± 0.062	0.906 ± 0.077	0.892 ± 0.12	0.949 ± 0.02	0.859 ± 0.086
UniProt Q9NUP7	0.957 ± 0.037	0.983 ± 0.033	0.955 ± 0.027	0.961 ± 0.03	0.95 ± 0.016	0.944 ± 0.026
GSKIP (UniProt Q9P0R6)	0.908 ± 0.12	0.961 ± 0.096	0.915 ± 0.063	0.943 ± 0.065	0.857 ± 0.035	0.842 ± 0.16
PDLIM7 (UniProt Q9NR12)	1 ± 0.029	0.991 ± 0.012	1.01 ± 0.015	0.99 ± 0.025	0.997 ± 0.027	0.996 ± 0.012
UniProt Q9NYU2 and related entries	1.04 ± 0.09	1 ± 0.079	0.994 ± 0.06	0.96 ± 0.095	1.03 ± 0.055	0.985 ± 0.065
CDKN2AIP (UniProt Q9NXV6)	0.967 ± 0.032	0.968 ± 0.037	0.981 ± 0.015	1 ± 0.034	0.959 ± 0.032	0.977 ± 0.018
